Assay results taken from paper PMC2922378.
No constants are given. Whether binding was seen depends on the method and setting. In cells and extracts the contact can be indirect. Some binding calls cover weakened binding; strength is not graded here.

By UniProt entry, the sequences of proteins in these tests, tags left out.
UniProt Q14457: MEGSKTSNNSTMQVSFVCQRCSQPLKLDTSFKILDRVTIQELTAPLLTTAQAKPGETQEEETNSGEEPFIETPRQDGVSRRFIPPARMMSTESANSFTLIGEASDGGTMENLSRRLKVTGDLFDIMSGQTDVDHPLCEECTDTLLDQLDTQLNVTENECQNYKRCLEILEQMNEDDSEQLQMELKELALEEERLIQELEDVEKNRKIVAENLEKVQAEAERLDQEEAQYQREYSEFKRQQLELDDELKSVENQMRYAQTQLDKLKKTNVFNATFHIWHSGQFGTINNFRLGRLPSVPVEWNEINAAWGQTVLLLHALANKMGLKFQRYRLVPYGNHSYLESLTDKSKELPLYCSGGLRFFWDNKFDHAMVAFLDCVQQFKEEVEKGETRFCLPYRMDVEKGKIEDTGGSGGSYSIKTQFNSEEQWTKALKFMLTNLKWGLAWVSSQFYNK
UniProt P10415: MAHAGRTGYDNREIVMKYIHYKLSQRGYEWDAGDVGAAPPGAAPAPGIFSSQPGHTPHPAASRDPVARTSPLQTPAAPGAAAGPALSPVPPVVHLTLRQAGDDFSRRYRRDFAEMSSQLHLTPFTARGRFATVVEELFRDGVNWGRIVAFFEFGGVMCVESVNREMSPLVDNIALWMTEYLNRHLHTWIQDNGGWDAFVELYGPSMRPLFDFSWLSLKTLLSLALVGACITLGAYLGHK

Biological target: beclin-1 (human (endogenous in term placental cytotrophoblasts)) (UniProt Q14457)
Experiment: co-IP; lysates (RIPA buffer) of cytotrophoblastic cells subjected to hypoxia-reoxygenation, treated with 50 uM vitamins C and E or vehicles; precipitated with anti-beclin-1 and protein A/G plus-agarose, 4°C overnight; immunoblotted for Bcl-2 and Bcl-xL

Substance: Bcl-2 (from UniProt P10415 1-239)
- binding: binds
